Experimental data as given in patent publication US20250009796A1.
These are yes or no findings as the source states them, for the method shown. In cells and extracts the contact can be indirect. Some entries that bind do so weakly or less than the wild type.

Experiments:
[1] = target: myeloid cell leukemia 1 (MCL-1), Q07820; experiment: co-immunoprecipitation of MCL-1 from lysate of L363 cells treated with SLO and synthetic NOXA, Western blot; conditions: remark: other sources report otherwise
[2] = target: myeloid cell leukemia 1 (MCL-1), Q07820; experiment: co-immunoprecipitation of MCL-1 (or isotype control IgG) from L363 cells treated with 15 ng/ml SLO with or without synthetic NOXA, Western blot; conditions: remark: other sources report otherwise

B1: synthetic NOXA (having same sequence as wildtype NOXA) (peptide)
chain: MPGKKARKNAQPSPARAPAELEVECATQLRRFGDKLNFRQKLLNLISKLFCSGT
- binding [1]: binds
- binding [2]: binds
